Measurements reported in PubChem BioAssay AID652272 (Drosophila RNAi Screening Center, 2013).
The deposit covers about 21,000 reagents; shown is a random part of those with a known target gene and a result. Of all reagents, 503 (2.4%) are marked active. 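Raw plate light values, not normalised; calls rest on replicate z-scores that were not deposited; hits include reporter decreases as well as increases.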 A number with no mark means an inactive call. A plus sign joins genes that one reagent is predicted to hit. No sequences are given here. Not given: the amount of reagent, the time to read-out.

Test: 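Genome-wide knock-down search for components of Hedgehog signalling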 (primary screen)
Cell system: Drosophila clone 8 (Cl8) cells
Reagents: long dsRNA against Drosophila genes
Measurement: 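Plate reader light from a firefly reporter under a ptc promoter fragment that responds to Hedgehog, with Renilla light as transfection reference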
Scale: firefly Hh reporter signal: higher = more ptc reporter light; Renilla reference signal: higher = more Renilla control light
Hit rule: 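Hit when the z-score averaged over two replicates is under -2 or over +3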
Calls: active = hit: reporter lowered or raised; inactive = not a hit

no.	Target gene	dsRNA	firefly Hh reporter signal, replicate 1	firefly Hh reporter signal, replicate 2	firefly Hh reporter signal, replicate 3	Renilla reference signal, replicate 1	Renilla reference signal, replicate 2
1	CG15617	DRSC06570	88305	52485		2619	3392
2	CG43098	DRSC08051	1.05e5	1.92e5		2940	7684
3	RabX1	DRSC04678	86005	70588		2487	5815
4	mRpL49 (mitochondrial ribosomal protein L49)	DRSC19908	73530	1.77e5		2225	6688
5	scpr-A + scpr-C	DRSC15737	79207	98967		3184	2877
6	GluProRS (Glutamyl-prolyl-tRNA synthetase)	DRSC14095	99008	80473		4002	3109
7	CG4324	DRSC04462	74181	67945		1783	5645
8	Ero1L (Endoplasmic reticulum oxidoreductin-1-like)	DRSC08660	1.09e5	56578		4524	2400
9	Hip1 (Huntingtin interacting protein 1)	DRSC09812	1.14e5	1.04e5		4354	4072
10	CG3819	DRSC10378	83968	1.28e5		2788	3510
11	gce (germ cell-expressed bHLH-PAS)	DRSC19613	97003	2.95e5		3532	12493
12	gce (germ cell-expressed bHLH-PAS)	DRSC19974	71612	1.71e5		2649	7346
13	blp (black pearl)	DRSC15757	67634	89110		1520	2544
14	GXIVsPLA2	DRSC10243	1.08e5	52090		4048	2289
15	CG33140	DRSC06030	91521	68202		3384	2730
16	CG4408	DRSC15574	99521	92224		3925	3868
17	RYa-R (RYamide receptor)	DRSC16757	87762	85281		2107	2594
18	CG31189	DRSC16198	5.69e5	79751		28309	2474
19	CG7953	DRSC01902	88887	47361		4017	2226
20	CG3520	DRSC04383	86204	53987		2288	4546
21	CG4291	DRSC00650	1.08e5	69590		4748	3329
22	Eaf (ELL-associated factor)	DRSC05050	78720	1.57e5		2092	6727
23	Eaf (ELL-associated factor)	DRSC06052	2.39e5	1.35e5		8822	4241
24	CR43096 + CG43060	DRSC12654	2.94e5			5579	
25	HSPBAP1 (HSPB1 associated protein 1)	DRSC14567	91731	1.12e5		2976	3424
26	CG10616	DRSC09750	95810	42084		4059	1728
27	Ac76E (Adenylyl cyclase 76E)	DRSC09642	2.43e5			5200	
28	Ac76E (Adenylyl cyclase 76E)	DRSC09662	1.21e5	86295		4803	3639
29	CG30075	DRSC05484	93026	1.81e5		2768	8208
30	DnaJ-1 (DnaJ-like-1)	DRSC11145	69872	69316		3510	2882
31	CG12099	DRSC08253	81280	73968		2160	5069
32	CG10413	DRSC02052	80433	81897		3056	3202
33	Pak3	DRSC15017	91015	90971		3517	3312
34	caup (caupolican)	DRSC11334	60851	27192	28128	2996	1651
35	Idgf2 (Imaginal disc growth factor 2)	DRSC03350	79097	54075		3682	2304
36	PIG-O (Phosphatidylinositol glycan anchor biosynthesis class O)	DRSC06123	1.47e5	1.19e5		6343	4961
37	mRpS9 (mitochondrial ribosomal protein S9)	DRSC12645	2.01e5			3531	
38	mRpS9 (mitochondrial ribosomal protein S9)	DRSC15456	76836	4.53e5	1.66e5	2866	2873
39	CG5126	DRSC00680	98267	83963		4155	3851
40	CG13300	DRSC09974	18592	25834		2684	2032
41	CG8195	DRSC07103	1.18e5	87812		5609	3600
42	bys (by S6)	DRSC18748	71240	67512		2252	2199
43	CG13043	DRSC09924	1.59e5			2685	4200
44	CG9899	DRSC04597	1.47e5	68365		3719	6455
45	Patsas	DRSC02975	80080	59046		3745	2400
46	CG12035	DRSC08238	1.26e5	59031		5335	2454
47	Ncc69 (sodium chloride cotransporter 69)	DRSC10412	1.18e5	84251		4521	3697
48	Ncc69 (sodium chloride cotransporter 69)	DRSC10413	39824	63640	44947	6292	928
49	CG1927	DRSC08146	1.44e5	78800		5641	3224
50	Cad96Cb (Cadherin 96Cb)	DRSC14243	5.02e5	88469		21168	6291
51	Cad96Cb (Cadherin 96Cb)	DRSC14665	6.08e5	92546		33248	24352
52	CG31115	DRSC13692	59696	1.58e5		13904	3509
53	ihog (interference hedgehog)	DRSC03157	48732	83104		2812	2953
54	Sbds (SBDS ribosome maturation factor)	DRSC10992	65881	68085		3280	2778
55	CG4914	DRSC10458	1.00e5			3271	2804
56	CG4502	DRSC02755	97873	71430		4385	3292
57	CG10970	DRSC17772	98022	86778		2464	2048

Part of the list above, reformatted.
{"Target gene":"CG13043","dsRNA":"DRSC09924","firefly Hh reporter signal, replicate 1":1.59e5,"Renilla reference signal, replicate 1":2685,"Renilla reference signal, replicate 2":4200}
{"Target gene":"CG9899","dsRNA":"DRSC04597","firefly Hh reporter signal, replicate 1":1.47e5,"firefly Hh reporter signal, replicate 2":68365,"Renilla reference signal, replicate 1":3719,"Renilla reference signal, replicate 2":6455}
{"Target gene":"Patsas","dsRNA":"DRSC02975","firefly Hh reporter signal, replicate 1":80080,"firefly Hh reporter signal, replicate 2":59046,"Renilla reference signal, replicate 1":3745,"Renilla reference signal, replicate 2":2400}
{"Target gene":"CG12035","dsRNA":"DRSC08238","firefly Hh reporter signal, replicate 1":1.26e5,"firefly Hh reporter signal, replicate 2":59031,"Renilla reference signal, replicate 1":5335,"Renilla reference signal, replicate 2":2454}
{"Target gene":"Ncc69 (sodium chloride cotransporter 69)","dsRNA":"DRSC10412","firefly Hh reporter signal, replicate 1":1.18e5,"firefly Hh reporter signal, replicate 2":84251,"Renilla reference signal, replicate 1":4521,"Renilla reference signal, replicate 2":3697}
